The list shows only some results of the screen, not a fair sample: it gathers tests that were run many times, whatever their T/C, doses with no T/C, and many T/C values between a quarter and a half above the control. Other doses and runs of a compound stand elsewhere. T/C gives the treated animals as a percentage of the vehicle group. Schedules are NCI's codes, taken here to give the interval after Q, in days (D) or hours (H), and the number of doses after X. Some schedule codes hold Z or #, which are not explained here. Some entries were tested several times; their values stand side by side, smallest first. Some molecules as drawn cover several salts, stereoisomers or complexes of the source; a dose is that of the sample tested. Some doses have a count of surviving animals in place of a T/C: the source files T/C as zero there, which appears to mark a toxic dose or a test without result, not a measured value. Survivors were counted at the toxicity check, usually on the fifth day, unless a day is given; later deaths do not show.
System: Swiss mice, Sarcoma 180 sc, mean tumor weight T/C
Assay: NCI In Vivo Anticancer Drug Screen. Data for tumor model Sarcoma 180 (subcutaneous) in Swiss mice
Settings: T/C endpoint: mean tumor weight, higher T/C = larger tumour; for T/C: evaluated on day 8
Method in brief: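 Mice bearing transplanted tumors were treated with compound, and survival or tumor size was measured. Values are expressed as the treated-group measurement (T) divided by the vehicle-treated control measurement (C).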

[1] = dose: 375.0 mg/kg/injection, schedule: Q#A X014 (ip), vehicle: saline
[2] = dose: 250.0 mg/kg/injection, schedule: Q01DX007 (ip), vehicle: other
[3] = dose: 375.0 mg/kg/injection, schedule: Q01DX007 (ip), vehicle: other
[4] = dose: 8.8 mg/kg/injection, schedule: Q#A X014 (sc), vehicle: steroid suspending solution

Q: Which results are given for `C[C@]12CC[C@@H]3c4ccc(O)cc4CC[C@H]3[C@@H]1C[C@H](O)C2`?
A: T/C (dose: 2.5 mg/kg/injection, schedule: Q01DX007 (sc), vehicle: steroid suspending solution): 140 % of control; survivor count (dose: 10.0 mg/kg/injection, schedule: Q#A X014 (ip), vehicle: methylcellulose (MC)): 3 of 6

Q: For `Nc1ccc(C(=O)O)c(O)c1`, which survivor count (dose: 767.0 mg/kg/injection, schedule: Q01DX007 (ip), vehicle: carboxymethylcellulose (CMC)) is on record?
A: 1 of 10

Q: `CC(C)COC(=O)C1(N)CCCC1` was tested. Which survivor count (dose: 282.0 mg/kg/injection, schedule: Q01DX007 (ip), vehicle: saline) did it give?
A: 2 of 6

Q: How did the survivor count (dose: 250.0 mg/kg/injection, schedule: Q#A X014 (ip), vehicle: saline) turn out when `CN(C)[C@@H]1C(=O)C(C(=O)NCNCCCC(=O)O)=C(O)[C@@]2(O)C(=O)C3=C(O)c4c(O)cccc4[C@@](C)(O)[C@H]3C[C@@H]12` was run?
A: 1 of 6

Q: What about the survivor count [1] of the same compound?
A: 1 of 6

Q: `N#Cc1ccc(S(N)(=O)=O)cc1` was tested. Which survivor count (dose: 111.0 mg/kg/injection, schedule: Q01DX007 (ip), vehicle: other) did it give?
A: 2 of 6

Q: And the survivor count (dose: 166.0 mg/kg/injection, schedule: Q01DX007 (ip), vehicle: other)?
A: 0 of 6

Q: What about the survivor count [2] of the same compound?
A: 0 of 6

Q: And the survivor count [3]?
A: 0 of 6

Q: Which survivor count (dose: 200.0 mg/kg/injection, schedule: Q01DX007 (ip), vehicle: saline) does the source give for `CCc1c(CC(=O)O)c2cc(C)ccc2n1Cc1ccc(Cl)cc1` here?
A: 0 of 6

Q: What about the survivor count (dose: 400.0 mg/kg/injection, schedule: Q01DX007 (ip), vehicle: saline) of the same compound?
A: 0 of 6

Q: How did the survivor count (dose: 7.5 mg/kg/injection, schedule: Q#A X014 (ip), vehicle: saline) turn out when `O=C(O)C(=O)O.O=C([O-])C(=O)O.O=C([O-])C(=O)O.O=C([O-])C(=O)[O-].[K+].[U]` was run?
A: 1 of 6

Q: And the survivor count (dose: 11.25 mg/kg/injection, schedule: Q#A X014 (ip), vehicle: saline)?
A: 3 of 6

Q: How did the survivor count (dose: 105.0 mg/kg/injection, schedule: Q01DX007 (ip), vehicle: carboxymethylcellulose (CMC)) turn out when `C=CCNc1ccc(C)cc1` was run?
A: 2 of 7

Q: What about the survivor count (dose: 236.0 mg/kg/injection, schedule: Q01DX007 (ip), vehicle: carboxymethylcellulose (CMC)) of the same compound?
A: 1 of 6

Q: How did the survivor count [2] turn out when `CN(C)c1ccc2c(c1)Cc1cc(N=C3C=CC(=O)O3)ccc1-2` was run?
A: 3 of 6

Q: What about the survivor count [3] of the same compound?
A: 0 of 6

Q: `CC(=O)OCC1OC(n2cnc3c(=S)nc(N)[nH]c32)C(OC(C)=O)C1OC(C)=O` (stereo unspecified) was tested. Which survivor count (dose: 50.0 mg/kg/injection, schedule: Q01DX007 (ip), vehicle: other) did it give?
A: 2 of 6

Q: And the survivor count (dose: 80.0 mg/kg/injection, schedule: Q01DX007 (ip), vehicle: saline)?
A: 3 of 6

Q: And the survivor count (dose: 250.0 mg/kg/injection, schedule: Q01DX007 (ip), vehicle: saline)?
A: 0 of 6

Q: What does the source list for `CNCc1ccccc1`?
A: survivor count (dose: 220.0 mg/kg/injection, schedule: Q01DX007 (ip), vehicle: carboxymethylcellulose (CMC)): 2 of 6; survivor count (dose: 330.0 mg/kg/injection, schedule: Q01DX007 (ip), vehicle: carboxymethylcellulose (CMC)): 0 of 6; survivor count (dose: 500.0 mg/kg/injection, schedule: Q01DX007 (ip), vehicle: carboxymethylcellulose (CMC)): 0 of 6

Q: With `CC1(c2ccccc2)O[C@@H]2C[C@H]3[C@@H]4CCC5=CC(=O)C=C[C@]5(C)[C@@]4(F)[C@@H](O)C[C@]3(C)[C@]2(C(=O)CO)O1` (stereo partly specified) as the compound, how does the survivor count (dose: 5.85 mg/kg/injection, schedule: Q#A X014 (sc), vehicle: steroid suspending solution) read?
A: 4 of 7

Q: What about the T/C [4] of the same compound?
A: 18 and 79 % of control

Q: And the survivor count [4]?
A: 3 of 6 and 4 of 7

Q: And the survivor count (dose: 19.8 mg/kg/injection, schedule: Q#A X014 (sc), vehicle: steroid suspending solution)?
A: 2 of 7

Q: Which results are given for `CC(=O)OCC(=O)[C@@]1(O)CC[C@H]2[C@@H]3CCC4=CC(=O)C=C[C@]4(C)[C@@]3(F)[C@@H](O)C[C@@]21C`?
A: survivor count (dose: 13.5 mg/kg/injection, schedule: Q#A X014 (sc), vehicle: steroid suspending solution): 1 of 6; survivor count (dose: 20.0 mg/kg/injection, schedule: Q#A X014 (sc), vehicle: steroid suspending solution): 3 of 6; survivor count (dose: 30.0 mg/kg/injection, schedule: Q#A X014 (sc), vehicle: steroid suspending solution): 1 of 6; survivor count (dose: 45.0 mg/kg/injection, schedule: Q#A X014 (sc), vehicle: steroid suspending solution): 2 of 6

Q: With `c1ccc2[nH]cnc2c1` as the compound, how does the survivor count (dose: 370.0 mg/kg/injection, schedule: Q01DX007 (ip), vehicle: carboxymethylcellulose (CMC)) read?
A: 5 of 10

Q: With `CC(C)(S)C(N)C(=O)O` (stereo unspecified) as the compound, how does the T/C (dose: 50.0 mg/kg/injection, schedule: Q01DX007 (oral), vehicle: saline) read?
A: 131 % of control

Q: And the survivor count (dose: 100.0 mg/kg/injection, schedule: Q01DX007 (oral), vehicle: saline)?
A: 4 of 7

Q: What about the T/C (dose: 125.0 mg/kg/injection, schedule: Q01DX007 (oral), vehicle: saline) of the same compound?
A: 125 % of control

Q: And the survivor count (dose: 200.0 mg/kg/injection, schedule: Q01DX007 (oral), vehicle: saline)?
A: 0 of 7

Q: What about the T/C (dose: 500.0 mg/kg/injection, schedule: Q01DX007 (oral), vehicle: saline) of the same compound?
A: 128 % of control

Q: Which survivor count (dose: 8.0 mg/kg/injection, schedule: Q01DX007 (sc), vehicle: steroid suspending solution) does the source give for `CC(=O)[C@@]1(O)[C@H](C)C[C@H]2[C@@H]3C=C(C)C4=Cc5c(cnn5-c5ccccc5)C[C@]4(C)[C@H]3[C@@H](O)C[C@@]21C` here?
A: 2 of 6

Q: Which survivor count (dose: 22.5 mg/kg/injection, schedule: Q#A X014 (ip), vehicle: methylcellulose (MC)) does the source give for `CCCOP(=S)(N1CC1)N1CC1` here?
A: 3 of 6

Q: What about the survivor count (dose: 22.5 mg/kg/injection, schedule: Q#A X014 (ip), vehicle: saline) of the same compound?
A: 1 of 6 and 3 of 6

Q: Which results are given for `Nc1c(Br)cc2c(c1Br)Cc1cc([N+](=O)[O-])ccc1-2`?
A: survivor count (dose: 222.0 mg/kg/injection, schedule: Q01DX007 (ip), vehicle: carboxymethylcellulose (CMC)): 1 of 6; survivor count [1]: 1 of 6

Q: Which T/C (dose: 0.11 mg/kg/injection, schedule: Q01DX007 (sc), vehicle: steroid suspending solution) does the source give for `CC(=O)OCC(=O)C1(O)C(C)CC2C3C=C(C)C4=Cc5c(cnn5-c5ccccc5)CC4(C)C3C(O)CC21C` (stereo unspecified) here?
A: 134 % of control

Q: What about the T/C (dose: 0.25 mg/kg/injection, schedule: Q01DX007 (sc), vehicle: steroid suspending solution) of the same compound?
A: 131 % of control

Q: What about the T/C (dose: 0.37 mg/kg/injection, schedule: Q01DX007 (sc), vehicle: steroid suspending solution) of the same compound?
A: 139 % of control

Q: What about the survivor count (dose: 2.0 mg/kg/injection, schedule: Q01DX007 (sc), vehicle: steroid suspending solution) of the same compound?
A: 3 of 6

Q: What about the survivor count (dose: 16.0 mg/kg/injection, schedule: Q01DX007 (sc), vehicle: steroid suspending solution) of the same compound?
A: 3 of 6

Q: What about the survivor count (dose: 32.0 mg/kg/injection, schedule: Q01DX007 (sc), vehicle: steroid suspending solution) of the same compound?
A: 2 of 6

Q: With `O=C(O)c1ccc(N=NSc2ncnc3nc[nH]c23)cc1O` as the compound, how does the survivor count (dose: 8.0 mg/kg/injection, schedule: Q01DX007 (ip), vehicle: carboxymethylcellulose (CMC)) read?
A: 2 of 6

Q: Which results are given for `O=C1Cc2ccccc2C(=O)N1`?
A: survivor count (dose: 60.0 mg/kg/injection, schedule: Q#A X014 (ip), vehicle: carboxymethylcellulose (CMC)): 2 of 6; survivor count (dose: 120.0 mg/kg/injection, schedule: Q#A X014 (ip), vehicle: carboxymethylcellulose (CMC)): 2 of 6

Q: For `c1ccc(CNc2ncnc3[nH]ncc23)cc1`, which survivor count (dose: 32.0 mg/kg/injection, schedule: Q01DX007 (ip), vehicle: carboxymethylcellulose (CMC)) is on record?
A: 0 of 6

Q: And the survivor count (dose: 62.0 mg/kg/injection, schedule: Q01DX007 (ip), vehicle: carboxymethylcellulose (CMC))?
A: 1 of 6

Q: What about the survivor count (dose: 62.5 mg/kg/injection, schedule: Q01DX007 (ip), vehicle: carboxymethylcellulose (CMC)) of the same compound?
A: 0 of 6

Q: Which survivor count (dose: 200.0 mg/kg/injection, schedule: Q01DX007 (ip), vehicle: other) does the source give for `COC(=O)C1=CO[C@@H](C)[C@@H]2Cn3ccc4c5ccccc5nc-4c3C[C@H]12` here?
A: 0 of 6

Q: For `O=C(CCBr)N1CCCN(C(=O)CCBr)CC1`, which survivor count (dose: 334.0 mg/kg/injection, schedule: Q01DX007 (ip), vehicle: carboxymethylcellulose (CMC)) is on record?
A: 2 of 7

Q: Which results are given for `ClCc1c2ccccc2c(CCl)c2ccccc12`?
A: survivor count (dose: 6.0 mg/kg/injection, schedule: Q01DX007 (ip), vehicle: methylcellulose (MC)): 1 of 6; survivor count (dose: 13.5 mg/kg/injection, schedule: Q01DX007 (ip), vehicle: saline): 3 of 7

Q: How did the survivor count (dose: 31.0 mg/kg/injection, schedule: Q01DX007 (ip), vehicle: other) turn out when `Nc1nc(SN=Nc2ccc(S(=O)(=O)O)cc2)c2[nH]cnc2n1` was run?
A: 3 of 6

Q: And the survivor count (dose: 46.0 mg/kg/injection, schedule: Q01DX007 (ip), vehicle: other)?
A: 2 of 6

— PubChem BioAssay AID342 (DTP/NCI, 2004)
